Assay results as given in PubChem BioAssay AID1671190 (National Center for Advancing Translational Sciences (NCATS), 2021).
In all, about 580,000 compounds went through this assay and about 6,100 (1.1%) were called active. Inconclusive means that the source gave no clear call. Such entries were picked first, then a sample of the others. The call rests on the fitted dose curve; in most records, active means well fitted inhibition curve with a large enough effect; inconclusive means small, poorly fitted or top-dose-only effect, or another doubt; inactive means no such curve, though single readings can be large or run the other way. Potencies beside an inconclusive call are fits to weak or partial responses and may not hold up.
On the % scale 0 is the no-effect control and ±100 the full control effect; potency means the concentration at half of the fitted maximal effect.

Sequences of proteins named here, by UniProt entry; tags and fusion partners are left off. A change or cut given only in a name is not applied to a line headed by its entry.
UniProt P18054: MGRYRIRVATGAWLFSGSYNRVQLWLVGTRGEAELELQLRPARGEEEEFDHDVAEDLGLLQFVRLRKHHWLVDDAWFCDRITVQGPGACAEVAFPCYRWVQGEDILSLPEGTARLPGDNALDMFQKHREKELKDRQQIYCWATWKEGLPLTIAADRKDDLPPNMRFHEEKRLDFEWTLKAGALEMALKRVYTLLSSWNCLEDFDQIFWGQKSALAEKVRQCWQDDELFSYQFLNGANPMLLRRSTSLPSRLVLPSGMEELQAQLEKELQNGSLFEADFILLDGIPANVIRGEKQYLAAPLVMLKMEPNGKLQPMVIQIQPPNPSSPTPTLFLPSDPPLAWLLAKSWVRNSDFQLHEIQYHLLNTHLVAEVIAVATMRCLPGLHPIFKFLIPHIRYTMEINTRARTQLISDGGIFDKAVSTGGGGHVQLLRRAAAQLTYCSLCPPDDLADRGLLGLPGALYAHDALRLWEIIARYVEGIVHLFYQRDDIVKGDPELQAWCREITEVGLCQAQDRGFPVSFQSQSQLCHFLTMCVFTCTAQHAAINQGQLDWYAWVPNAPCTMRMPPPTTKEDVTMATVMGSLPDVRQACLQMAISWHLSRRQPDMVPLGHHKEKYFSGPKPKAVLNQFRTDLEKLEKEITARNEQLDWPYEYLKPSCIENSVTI

These molecules were tested against Polyunsaturated fatty acid lipoxygenase ALOX12 (Homo sapiens) (UniProt P18054) (assay: Primary qHTS assay for inhibitors of human arachidonate 12S-lipoxygenase (ALOX12): Round 2). Conditions: purified 12hLO, xylenol orange hydroperoxide absorbance; activity change, negative = inhibition: at 108 µM (top of the series) unless noted.
Summary of the method: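 Hydroperoxide product was detected by ferrous iron/xylenol orange as the 573 to 405 nm absorbance ratio. Arachidonic acid at 40 uM (final) was turned over for 30 min at room temperature by 150 nM human 12hLO, pH 7.0 Hepes buffer, after 15 min compound preincubation.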
For Cc1cc(NC(=S)Nc2cccc3ccccc23)n[nH]1, the Potency was inconclusive: 44.7 µM [inhibitor, partial curve, poor fit].
In the case of CCCOc1cccc(-c2cc(C(=O)NNC(=S)NCC)c3ccccc3n2)c1, the Potency is reported as active: 25.1 µM.
In the case of CCN(CC(=O)Nc1ccc2c(c1)OCCO2)C(=O)CCc1ccc(OC)cc1, the Potency is reported as inconclusive: 50.1 µM [inhibitor, partial curve, poor fit].
In the case of Cc1[nH]c2ccccc2c1/C=N/Nc1nncn1N, the Potency is reported as inconclusive: 44.7 µM [inhibitor, partial curve, poor fit].
With c1ccc(CC(CCNCc2ccco2)c2ccco2)cc1 (centres undefined) the “activity change, negative = inhibition” value was inactive: -2.66%.
With Cc1cc(C(F)(F)F)nn1Cc1n[nH]c(=S)n1Cc1ccccc1 the Potency was inconclusive: 39.8 µM [inhibitor, partial curve, poor fit].
In the case of Cc1ccc(CN2CC(C(=O)Nc3ccncc3)CC2=O)cc1 (centres undefined), the Potency is reported as inconclusive: 112 µM [inhibitor, partial curve, poor fit].
For COc1ccc(Br)cc1CNC12CC3CC(CC(C3)C1)C2, the Potency was inconclusive: 0.224 µM [inhibitor, full curve].
In the case of O=C(NCCc1csc(-c2cccnc2)n1)C1NCCc2[nH]cnc21 (centres undefined), the Potency is reported as inconclusive: 3.16 µM [inhibitor, full curve, poor fit].
For O=C(CNc1cc(S(=O)(=O)N2CCCCC2)ccc1N1CCCCC1)Nc1ccc(F)cc1, the Potency was active: 10 µM.
For Cc1ccc(CN(CC2CCCO2)C(=O)CN2C(=O)C(C(C)C)Oc3ccccc32)o1 (centres undefined), the “activity change, negative = inhibition” value was inactive: -14.7%.
With COc1ccc(C(=O)N2CCC3(CC2)CCC(O)(CN(C)C)CC3)cc1 the “activity change, negative = inhibition” value was inactive: 57.5%.
With C=CCN1C(=O)C2(c3ccccc31)C1CCCC=C1C(C#N)=C(N)C2(C#N)C#N (centres undefined) the Potency was inconclusive: 11.2 µM [inhibitor, full curve].
For Cc1ccc2nc3c(cc(C(=O)NCCCn4ccnc4)n3C)c(=O)n2c1, the “activity change, negative = inhibition” value was inactive: 28.3%.
In the case of CC1=CC(=O)/C(=C(/C)O)C(=O)O1, the Potency is reported as inconclusive: 50.1 µM [inhibitor, partial curve, poor fit].
Cc1cccc(C(=O)NCc2nnc(SCc3ccc(F)cc3)n2C)c1 was tested, and the Potency was inconclusive: 100 µM [inhibitor, partial curve, poor fit].
In the case of Cc1nc(-c2ccc(S(=O)(=O)N3CCN(C4c5ccccc5-c5ccccc54)CC3)s2)cs1, the Potency is reported as inconclusive: 112 µM [inhibitor, single point].
For COc1ccc(Cl)cc1NS(=O)(=O)c1cccc(C(=O)N2CCc3sccc3C2)c1, the Potency was inconclusive: 8.91 µM [inhibitor, full curve, poor fit].
With O=C(Nc1ccccc1Cl)c1ccc2c(Cl)c3c(nc2c1)CCCC3 the Potency was inconclusive: 112 µM [inhibitor, single point].
With CCC(=O)Nc1nc(-c2ccc3c(c2)OCCO3)cs1 the “activity change, negative = inhibition” value was inactive: -33.3%.
For NC1=NC(=O)/C(=C\c2cccs2)S1, the “activity change, negative = inhibition” value was inactive: -21.9%.
N[C@H]1CCCN(C(=O)c2cnc(C34CC5CC(CC(C5)C3)C4)[nH]c2=O)C1 was tested, and the Potency was inconclusive: 15.8 µM [inhibitor, full curve].
For N#C/C(=C/c1ccc(N2CCOCC2)o1)c1ccc(Br)cc1, the Potency was active: 5.62 µM.
In the case of Cn1c(-c2ccc(F)cc2)cnc1NCc1cccc(F)c1, the Potency is reported as inconclusive: 0.282 µM [inhibitor, full curve, poor fit].
For O=C(CN1CCN(c2ccccc2O)CC1)Nc1ccccc1C(=O)NCCc1ccccc1, the Potency was inconclusive: 44.7 µM [inhibitor, partial curve, poor fit].
CC1(c2nnc(-c3cccc(Cl)c3)o2)CC(c2cccc([N+](=O)[O-])c2)=NO1 (centres undefined) was tested, and the Potency was inconclusive: 35.5 µM [inhibitor, partial curve, poor fit].
For Cc1ccc(S(=O)(=O)c2c(N)n(/N=C/c3ccco3)c3nc4ccccc4nc23)cc1, the Potency was inconclusive: 63.1 µM [inhibitor, partial curve, poor fit].
For CC(Sc1ncnc2sc(-c3ccccc3)cc12)C(N)=O (centres undefined), the “activity change, negative = inhibition” value was inactive: -16.4%.
In the case of COc1cccc(C(=O)N2CCN(c3cc(C(F)(F)F)ncn3)CC2)c1, the “activity change, negative = inhibition” value is reported as inactive: 18%.
In the case of Cc1[nH]n(C(N)=S)c(=O)c1N=Nc1ccc(S(=O)(=O)N2CCCC2)cc1, the Potency is reported as inconclusive: 2.51 µM [inhibitor, full curve, poor fit].
With CC(NC(=O)CCCCCN1C(=O)c2ccccc2C1=O)c1ccc2c(c1)CCCC2 (centres undefined) the Potency was inconclusive: 35.5 µM [inhibitor, partial curve, poor fit].
In the case of CSc1ncccc1C(=O)N[C@@H]1CCOC[C@H]1Oc1ccc(C#N)cc1, the “activity change, negative = inhibition” value is reported as inactive: 24%.
With CC(C)(C)c1ccc(SCCc2cccnc2)cc1 the Potency was inconclusive: 112 µM [inhibitor, single point].
With Cc1nn(CC(C)C)c(=S)[nH]c1=O the Potency was inconclusive: 89.1 µM [inhibitor, single point].
COc1ccc(-c2cc(=O)c3cc(OC)ccc3o2)cc1 was tested, and the “activity change, negative = inhibition” value was inactive: -2.91%.
With CN1C(=O)C2(CCN(Cc3ccc(F)cc3)C2)c2ccccc21 (centres undefined) the “activity change, negative = inhibition” value was inactive: 59.4% [at 176 µM].
For O=C(O)Cn1cc(C(C(=O)O)N2CCN(CC(=O)N3CCCC3)CC2)c2ccc(F)cc21 (centres undefined), the Potency was inconclusive: 28.2 µM [inhibitor, full curve, poor fit].
In the case of O=C1/C(=C/c2cccs2)SC(=S)N1NS(=O)(=O)c1ccccc1, the Potency is reported as inconclusive: 112 µM [inhibitor, single point].
With Cc1ccccc1-n1c(C)n[nH]c1=S the Potency was inconclusive: 35.5 µM [inhibitor, partial curve, poor fit].
Cc1ccc2c(C)c(C(=O)N(C)CCC3CCCCO3)oc2c1C (centres undefined) was tested, and the Potency was inconclusive: 79.4 µM [inhibitor, partial curve, poor fit].
COc1ccc(CC(=O)Nc2cccc(C(C)=O)c2)cc1S(=O)(=O)N1CCOCC1 was tested, and the “activity change, negative = inhibition” value was inactive: -15.3%.
With NC(=S)N/N=C/C(Cl)=C/c1ccc([N+](=O)[O-])cc1 the Potency was inconclusive: 100 µM [inhibitor, partial curve, poor fit].
In the case of CCOc1cccc(/C=N/N=C/c2cccc(OCC)c2O)c1O, the “activity change, negative = inhibition” value is reported as inactive: -3.84%.
In the case of Cc1ccccc1CSCCNC(=O)c1ccc(N(C)S(=O)(=O)c2ccccc2)cc1, the Potency is reported as inconclusive: 31.6 µM [inhibitor, single point].
